Assay results

Data taken from PubChem BioAssay AID504749, deposited by NCATS (2011).

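Malaria parasite (P. falciparum) lines kept in red blood cells; parasite DNA is measured by SYBR Green fluorescence after lysis, 72 h after compound addition.
Each compound was titrated across a series from about 0.000037 to 29 µM.
The number is the fitted AC50, the concentration giving a half-maximal change in signal; a lower value means higher potency, whether the curve shows a decrease or an increase.
Calls follow the curve class and fit quality: every row here is inconclusive, covering signal-raising curves and weak, poorly fitted, partial or highest-dose-only inhibition curves.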

Values are in µM.
Every entry below has the call inconclusive.
These entries are mostly ones the record files as inconclusive; other results of the assay are not listed here.
A potency from a partial, single-point or poor curve is only a rough figure.
The first word of each remark tells which way the curve ran; it can be opposite to the aim of the assay.

With [O]=[Cr](=[O])([OH])[O][Cr](=[O])(=[O])[OH] [CP335] the assay gave Potency 19.01 µM (inhibitor, single point).
With [O]=[Cr](=[O])([OH])[O][Cr](=[O])(=[O])[OH] [PC26] the assay gave Potency 12 µM (activator, partial curve, poor fit).
With [O]=[Cr](=[O])([OH])[O][Cr](=[O])(=[O])[OH] [CP260] the assay gave Potency 15.85 µM (inhibitor, single point).
With Oc1ccc(O)cc1 [TAB165] the assay gave Potency 10 µM (inhibitor, single point).
With Oc1ccc(O)cc1 [GB4] the assay gave Potency 19.01 µM (inhibitor, single point).
With Oc1ccc(O)cc1 [DIV14] the assay gave Potency 19.01 µM (inhibitor, single point).
With Oc1ccc(O)cc1 [N140] the assay gave Potency 12.59 µM (inhibitor, partial curve).
With Oc1ccc(O)cc1 [CP250] the assay gave Potency 11.22 µM (inhibitor, single point).
With Oc1ccc(O)cc1 [DIV30] the assay gave Potency 15.1 µM (inhibitor, single point).
With Oc1ccc(O)cc1 [7G8] the assay gave Potency 12.59 µM (inhibitor, partial curve).
With Oc1ccc(O)cc1 [AS120] the assay gave Potency 11.22 µM (inhibitor, partial curve).
With Oc1ccc(O)cc1 [CP297] the assay gave Potency 10.69 µM (inhibitor, single point).
With Oc1ccc(O)cc1 [P93_24] the assay gave Potency 8.912 µM (inhibitor, single point).
With Oc1ccc(O)cc1 [CP252] the assay gave Potency 11.22 µM (inhibitor, single point).
With Oc1ccc(O)cc1 [Dd2] the assay gave Potency 8.912 µM (inhibitor, single point).
With Oc1ccc(O)cc1 [CP325] the assay gave Potency 13.46 µM (inhibitor, partial curve, poor fit).
With Oc1ccc(O)cc1 [ECU] the assay gave Potency 17.78 µM (inhibitor, single point).
With Oc1ccc(O)cc1 [CP262] the assay gave Potency 6.746 µM (inhibitor, partial curve).
With Oc1ccc(O)cc1 [CP266] the assay gave Potency 19.01 µM (inhibitor, single point).
With Oc1ccc(O)cc1 [DFO2036] the assay gave Potency 17.78 µM (inhibitor, single point).
With Oc1ccc(O)cc1 [P94_40] the assay gave Potency 17.78 µM (inhibitor, single point).
With Oc1ccc(O)cc1 [CP269] the assay gave Potency 13.46 µM (inhibitor, partial curve).

For reference, 2 entries once more:

Compound	setting	Potency (µM)	curve as filed
[O]=[Cr](=[O])([OH])[O][Cr](=[O])(=[O])[OH]	CP335	19.01	inhibitor, single point
[O]=[Cr](=[O])([OH])[O][Cr](=[O])(=[O])[OH]	PC26	12	activator, partial curve, poor fit